Reference: PMC8874600
These are yes or no findings as the source states them, for the method shown. Binding calls can cover weak binding; strength is not graded here. Where a sequence is shown, tags or fusion partners need not be part of it. For some assays here: In cells and extracts the contact can be indirect.

What was measured:
[1] = molecular target: T1, RBE fused to the N-terminus of YFP (RBE in pBS:35S:nYFP) (Arabidopsis thaliana) (UniProt Q9LHS9); experiment: split reporter; BiFC with MAC5A-cYFP and RBE-nYFP in onion epidermal cells after bombardment; YFP fluorescence
T1 sequence: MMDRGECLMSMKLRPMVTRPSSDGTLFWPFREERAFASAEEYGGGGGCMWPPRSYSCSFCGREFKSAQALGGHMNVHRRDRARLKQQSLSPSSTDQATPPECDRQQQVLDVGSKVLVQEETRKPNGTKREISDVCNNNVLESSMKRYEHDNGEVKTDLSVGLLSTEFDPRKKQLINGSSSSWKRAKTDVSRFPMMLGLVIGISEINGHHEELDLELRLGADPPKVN

[2] = molecular target: T2, RABBIT EARS (RBE), bait BD-RBE (Arabidopsis thaliana) (UniProt Q9LHS9); experiment: two-hybrid; bait BD-RBE (pGBKT7) and prey AD-MAC5A (pGADT7) cotransformed into yeast strain AH109; growth on SD/-Ade/-His/-Leu/-Trp (QDO) medium, 30 °C, three to five days; empty vectors as negative controls
T2 sequence: T1 sequence

binding [1]	binding [2]	Substance
binds		MAC5A fused to the C-terminus of YFP (MAC5A in pBS:35S:cYFP) (Arabidopsis thaliana)
	binds	MOS4-ASSOCIATED COMPLEX 5A (MAC5A), prey AD-MAC5A (Arabidopsis thaliana)
